These are yes or no findings as the source states them, for the method shown. Binding seen in cells or lysates may run through a third protein.
Biological target: T1, HEATR2 (human (endogenous in normal human bronchial epithelial cells)) (UniProt Q86Y56)
T1 sequence: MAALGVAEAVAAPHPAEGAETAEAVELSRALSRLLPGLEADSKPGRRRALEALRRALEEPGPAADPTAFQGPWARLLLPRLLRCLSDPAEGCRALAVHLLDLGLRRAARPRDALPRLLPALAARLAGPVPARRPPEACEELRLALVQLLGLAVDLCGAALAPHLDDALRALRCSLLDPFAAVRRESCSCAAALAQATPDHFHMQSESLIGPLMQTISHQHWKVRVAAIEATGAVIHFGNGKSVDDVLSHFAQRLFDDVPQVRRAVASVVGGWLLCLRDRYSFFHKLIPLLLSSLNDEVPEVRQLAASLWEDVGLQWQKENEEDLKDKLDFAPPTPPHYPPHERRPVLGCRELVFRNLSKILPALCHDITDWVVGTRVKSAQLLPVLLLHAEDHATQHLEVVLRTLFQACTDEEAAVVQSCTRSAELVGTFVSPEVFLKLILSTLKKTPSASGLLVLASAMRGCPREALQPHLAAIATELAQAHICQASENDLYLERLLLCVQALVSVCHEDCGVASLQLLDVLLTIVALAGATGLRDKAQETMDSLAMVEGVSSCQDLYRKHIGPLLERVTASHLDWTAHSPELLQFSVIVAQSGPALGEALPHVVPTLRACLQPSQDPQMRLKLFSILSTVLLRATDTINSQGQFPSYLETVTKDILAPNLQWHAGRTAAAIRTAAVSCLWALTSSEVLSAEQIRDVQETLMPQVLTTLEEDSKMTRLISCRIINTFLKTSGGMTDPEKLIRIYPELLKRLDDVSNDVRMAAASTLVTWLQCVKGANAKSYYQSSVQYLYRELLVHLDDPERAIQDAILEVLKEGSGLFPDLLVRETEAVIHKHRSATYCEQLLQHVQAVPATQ
Test: co-IP; endogenous HEATR2 precipitated with anti-HEATR2 (Proteintech) from whole cell lysates of terminally differentiated normal human bronchial epithelial cells (40 days post-ALI); control rabbit IgG (GFP); lysis buffer 50 mM Tris-HCl pH 7.5, 100 mM NaCl, 10% glycerol, 0.5 mM EDTA, 0.5% IGEPAL, 0.15% Triton-X 100; overnight at 4°C; Dynabeads G; immunoblot

- binding: no binding
Substance: HSP70

Source: article PMC4168999
